The list shows a part of the results.

Sequences of proteins named here, by UniProt entry; tags and fusion partners are left off. A change or cut given only in a name is not applied to a line headed by its entry.
UniProt Q92688: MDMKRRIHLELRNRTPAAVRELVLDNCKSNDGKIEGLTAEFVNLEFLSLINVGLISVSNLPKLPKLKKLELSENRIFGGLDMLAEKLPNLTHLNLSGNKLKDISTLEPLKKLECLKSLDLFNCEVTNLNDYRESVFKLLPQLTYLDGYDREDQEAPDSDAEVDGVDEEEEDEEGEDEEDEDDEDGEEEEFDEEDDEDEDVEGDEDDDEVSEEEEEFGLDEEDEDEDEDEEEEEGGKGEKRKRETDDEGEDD
UniProt O75843: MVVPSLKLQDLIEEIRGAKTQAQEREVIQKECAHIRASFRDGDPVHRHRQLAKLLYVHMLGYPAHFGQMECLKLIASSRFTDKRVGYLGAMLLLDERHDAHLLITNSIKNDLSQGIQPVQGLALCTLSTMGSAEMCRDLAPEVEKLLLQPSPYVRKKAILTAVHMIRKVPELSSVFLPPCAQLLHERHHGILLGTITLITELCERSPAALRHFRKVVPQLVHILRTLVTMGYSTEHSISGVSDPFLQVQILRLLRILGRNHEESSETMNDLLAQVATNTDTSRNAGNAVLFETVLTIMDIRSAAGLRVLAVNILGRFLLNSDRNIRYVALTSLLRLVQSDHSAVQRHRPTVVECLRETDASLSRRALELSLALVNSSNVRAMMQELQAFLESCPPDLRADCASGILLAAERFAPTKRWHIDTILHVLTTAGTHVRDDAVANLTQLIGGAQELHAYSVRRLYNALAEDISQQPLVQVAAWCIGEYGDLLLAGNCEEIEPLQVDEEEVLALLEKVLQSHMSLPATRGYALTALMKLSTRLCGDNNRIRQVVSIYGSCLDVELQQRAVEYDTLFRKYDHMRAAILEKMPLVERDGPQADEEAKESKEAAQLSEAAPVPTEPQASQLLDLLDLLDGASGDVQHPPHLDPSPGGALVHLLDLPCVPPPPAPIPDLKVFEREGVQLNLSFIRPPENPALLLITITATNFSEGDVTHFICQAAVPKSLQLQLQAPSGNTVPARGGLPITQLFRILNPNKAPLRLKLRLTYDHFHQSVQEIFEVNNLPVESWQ
UniProt Q5VTE6: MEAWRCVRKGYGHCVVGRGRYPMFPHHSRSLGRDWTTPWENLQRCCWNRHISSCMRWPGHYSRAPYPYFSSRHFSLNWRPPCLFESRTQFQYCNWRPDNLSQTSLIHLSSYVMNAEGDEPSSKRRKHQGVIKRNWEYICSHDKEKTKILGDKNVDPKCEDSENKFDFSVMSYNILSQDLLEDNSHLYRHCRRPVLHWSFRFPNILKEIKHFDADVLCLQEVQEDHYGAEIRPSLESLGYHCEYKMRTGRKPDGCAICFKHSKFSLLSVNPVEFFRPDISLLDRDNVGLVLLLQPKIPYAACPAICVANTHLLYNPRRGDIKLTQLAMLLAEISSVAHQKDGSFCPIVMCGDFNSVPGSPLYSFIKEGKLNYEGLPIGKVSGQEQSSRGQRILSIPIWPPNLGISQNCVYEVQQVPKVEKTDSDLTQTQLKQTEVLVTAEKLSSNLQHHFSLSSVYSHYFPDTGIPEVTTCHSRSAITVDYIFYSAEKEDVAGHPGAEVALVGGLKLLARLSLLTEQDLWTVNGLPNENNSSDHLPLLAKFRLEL
UniProt Q8IZ07: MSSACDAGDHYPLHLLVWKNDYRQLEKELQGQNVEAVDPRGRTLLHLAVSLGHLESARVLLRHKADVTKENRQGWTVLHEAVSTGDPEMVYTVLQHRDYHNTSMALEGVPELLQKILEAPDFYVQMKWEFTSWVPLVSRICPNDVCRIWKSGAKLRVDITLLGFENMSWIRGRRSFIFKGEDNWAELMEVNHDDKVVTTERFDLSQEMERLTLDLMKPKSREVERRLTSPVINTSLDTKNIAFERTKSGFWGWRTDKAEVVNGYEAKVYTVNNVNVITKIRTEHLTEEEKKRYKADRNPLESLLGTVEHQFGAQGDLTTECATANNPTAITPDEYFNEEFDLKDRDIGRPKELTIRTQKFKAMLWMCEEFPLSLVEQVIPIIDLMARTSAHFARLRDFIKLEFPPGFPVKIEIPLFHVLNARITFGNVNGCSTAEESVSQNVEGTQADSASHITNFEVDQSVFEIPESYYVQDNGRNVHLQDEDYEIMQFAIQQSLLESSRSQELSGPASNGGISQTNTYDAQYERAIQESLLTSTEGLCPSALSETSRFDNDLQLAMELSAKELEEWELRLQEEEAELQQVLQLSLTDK
UniProt Q3SY69: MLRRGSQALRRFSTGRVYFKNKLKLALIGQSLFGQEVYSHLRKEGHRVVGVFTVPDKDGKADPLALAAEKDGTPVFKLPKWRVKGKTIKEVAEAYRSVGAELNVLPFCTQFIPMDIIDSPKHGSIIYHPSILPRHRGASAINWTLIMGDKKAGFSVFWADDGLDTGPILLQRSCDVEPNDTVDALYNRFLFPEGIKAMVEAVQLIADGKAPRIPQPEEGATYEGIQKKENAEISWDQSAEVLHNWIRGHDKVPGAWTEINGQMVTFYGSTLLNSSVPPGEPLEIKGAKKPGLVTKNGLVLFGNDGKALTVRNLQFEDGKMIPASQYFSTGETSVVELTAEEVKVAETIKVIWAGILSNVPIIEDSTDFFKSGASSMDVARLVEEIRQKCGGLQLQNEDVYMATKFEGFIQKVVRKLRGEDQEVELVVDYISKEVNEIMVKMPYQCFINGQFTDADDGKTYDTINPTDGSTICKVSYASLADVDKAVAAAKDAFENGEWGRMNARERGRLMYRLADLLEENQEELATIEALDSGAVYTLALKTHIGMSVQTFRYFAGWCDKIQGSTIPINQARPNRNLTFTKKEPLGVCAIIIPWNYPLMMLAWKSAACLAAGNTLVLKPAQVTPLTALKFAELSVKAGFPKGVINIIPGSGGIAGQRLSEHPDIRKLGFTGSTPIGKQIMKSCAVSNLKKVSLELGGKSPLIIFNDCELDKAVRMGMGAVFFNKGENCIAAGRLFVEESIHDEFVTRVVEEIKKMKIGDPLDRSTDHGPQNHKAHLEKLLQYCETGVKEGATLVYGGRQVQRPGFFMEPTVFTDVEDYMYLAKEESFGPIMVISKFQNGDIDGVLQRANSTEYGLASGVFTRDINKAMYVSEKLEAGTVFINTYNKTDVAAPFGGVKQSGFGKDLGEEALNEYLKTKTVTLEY
UniProt P13716: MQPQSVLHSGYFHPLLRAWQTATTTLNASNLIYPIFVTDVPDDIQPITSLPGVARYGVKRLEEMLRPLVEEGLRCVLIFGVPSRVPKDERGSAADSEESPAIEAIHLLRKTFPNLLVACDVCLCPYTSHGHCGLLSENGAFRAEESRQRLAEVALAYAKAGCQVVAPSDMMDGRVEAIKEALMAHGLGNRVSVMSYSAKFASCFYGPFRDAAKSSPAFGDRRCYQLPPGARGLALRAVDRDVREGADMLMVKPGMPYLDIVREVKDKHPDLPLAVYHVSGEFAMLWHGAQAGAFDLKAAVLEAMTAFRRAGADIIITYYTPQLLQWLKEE
UniProt Q9UJX6, whole entry, looked up: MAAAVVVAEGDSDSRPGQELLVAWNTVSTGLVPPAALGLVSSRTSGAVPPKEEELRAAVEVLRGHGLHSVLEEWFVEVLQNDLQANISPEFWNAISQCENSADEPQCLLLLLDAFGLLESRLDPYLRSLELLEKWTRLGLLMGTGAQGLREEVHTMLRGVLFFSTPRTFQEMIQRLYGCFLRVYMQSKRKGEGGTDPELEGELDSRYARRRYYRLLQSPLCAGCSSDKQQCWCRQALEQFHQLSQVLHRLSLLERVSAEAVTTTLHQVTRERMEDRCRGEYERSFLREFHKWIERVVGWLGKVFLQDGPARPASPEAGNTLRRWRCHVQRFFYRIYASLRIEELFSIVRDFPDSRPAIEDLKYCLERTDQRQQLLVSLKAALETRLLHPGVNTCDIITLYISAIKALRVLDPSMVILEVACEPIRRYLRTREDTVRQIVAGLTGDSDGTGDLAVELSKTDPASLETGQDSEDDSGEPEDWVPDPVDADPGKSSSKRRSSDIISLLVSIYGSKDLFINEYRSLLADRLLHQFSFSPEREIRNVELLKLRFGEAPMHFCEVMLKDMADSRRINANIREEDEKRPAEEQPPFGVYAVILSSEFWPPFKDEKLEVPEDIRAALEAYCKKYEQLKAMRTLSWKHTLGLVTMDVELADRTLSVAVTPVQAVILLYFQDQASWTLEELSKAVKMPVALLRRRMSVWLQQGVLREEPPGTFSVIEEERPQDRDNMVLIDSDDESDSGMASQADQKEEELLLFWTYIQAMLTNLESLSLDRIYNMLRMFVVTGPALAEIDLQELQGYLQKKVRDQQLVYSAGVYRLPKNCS
UniProt O94788: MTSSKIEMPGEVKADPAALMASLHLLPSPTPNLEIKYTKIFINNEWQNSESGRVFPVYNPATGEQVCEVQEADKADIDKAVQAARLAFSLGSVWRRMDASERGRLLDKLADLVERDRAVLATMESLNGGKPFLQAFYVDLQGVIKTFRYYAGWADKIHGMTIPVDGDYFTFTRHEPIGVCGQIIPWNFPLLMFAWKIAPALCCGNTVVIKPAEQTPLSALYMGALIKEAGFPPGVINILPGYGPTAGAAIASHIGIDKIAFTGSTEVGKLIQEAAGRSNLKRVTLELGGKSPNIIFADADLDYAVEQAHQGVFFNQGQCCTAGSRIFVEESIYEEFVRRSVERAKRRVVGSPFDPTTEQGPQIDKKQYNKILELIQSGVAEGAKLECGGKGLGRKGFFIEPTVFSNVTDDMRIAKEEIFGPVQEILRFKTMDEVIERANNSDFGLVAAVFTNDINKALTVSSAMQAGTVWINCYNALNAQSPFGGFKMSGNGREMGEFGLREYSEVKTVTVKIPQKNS
UniProt P12429: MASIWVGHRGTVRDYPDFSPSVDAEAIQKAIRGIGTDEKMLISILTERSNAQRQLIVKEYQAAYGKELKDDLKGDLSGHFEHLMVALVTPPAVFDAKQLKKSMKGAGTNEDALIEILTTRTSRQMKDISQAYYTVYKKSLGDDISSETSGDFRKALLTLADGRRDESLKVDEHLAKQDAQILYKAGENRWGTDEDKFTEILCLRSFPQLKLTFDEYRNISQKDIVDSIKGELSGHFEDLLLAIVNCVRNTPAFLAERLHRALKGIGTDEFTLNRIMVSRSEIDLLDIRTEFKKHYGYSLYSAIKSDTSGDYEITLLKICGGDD
UniProt Q96NW4, whole entry, looked up: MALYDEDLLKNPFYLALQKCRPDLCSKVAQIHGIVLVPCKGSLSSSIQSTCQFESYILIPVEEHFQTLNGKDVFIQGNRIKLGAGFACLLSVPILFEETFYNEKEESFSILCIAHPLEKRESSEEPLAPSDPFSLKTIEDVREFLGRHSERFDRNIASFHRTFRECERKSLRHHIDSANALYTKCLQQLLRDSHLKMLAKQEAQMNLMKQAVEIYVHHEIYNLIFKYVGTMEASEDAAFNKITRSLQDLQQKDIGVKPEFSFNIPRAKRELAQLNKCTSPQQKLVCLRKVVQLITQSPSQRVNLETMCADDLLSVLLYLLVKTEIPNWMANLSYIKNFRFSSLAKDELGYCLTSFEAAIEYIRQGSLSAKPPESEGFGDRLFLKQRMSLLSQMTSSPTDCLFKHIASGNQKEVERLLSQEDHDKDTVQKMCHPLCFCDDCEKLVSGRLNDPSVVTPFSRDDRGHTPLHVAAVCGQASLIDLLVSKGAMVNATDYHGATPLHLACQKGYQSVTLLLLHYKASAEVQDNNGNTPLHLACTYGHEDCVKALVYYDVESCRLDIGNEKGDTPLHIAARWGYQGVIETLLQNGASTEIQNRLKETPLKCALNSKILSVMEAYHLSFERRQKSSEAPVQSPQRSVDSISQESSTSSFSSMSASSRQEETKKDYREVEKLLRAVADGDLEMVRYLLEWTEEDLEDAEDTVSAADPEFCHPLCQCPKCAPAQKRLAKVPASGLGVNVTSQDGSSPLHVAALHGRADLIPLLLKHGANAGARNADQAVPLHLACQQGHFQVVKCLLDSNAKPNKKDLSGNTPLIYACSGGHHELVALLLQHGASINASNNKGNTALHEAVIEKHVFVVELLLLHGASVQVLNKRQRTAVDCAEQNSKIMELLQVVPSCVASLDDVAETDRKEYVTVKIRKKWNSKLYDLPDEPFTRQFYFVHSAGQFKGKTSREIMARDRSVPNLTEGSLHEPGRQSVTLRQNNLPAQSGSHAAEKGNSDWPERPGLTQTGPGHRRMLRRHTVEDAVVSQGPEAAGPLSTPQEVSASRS
UniProt Q9BT22: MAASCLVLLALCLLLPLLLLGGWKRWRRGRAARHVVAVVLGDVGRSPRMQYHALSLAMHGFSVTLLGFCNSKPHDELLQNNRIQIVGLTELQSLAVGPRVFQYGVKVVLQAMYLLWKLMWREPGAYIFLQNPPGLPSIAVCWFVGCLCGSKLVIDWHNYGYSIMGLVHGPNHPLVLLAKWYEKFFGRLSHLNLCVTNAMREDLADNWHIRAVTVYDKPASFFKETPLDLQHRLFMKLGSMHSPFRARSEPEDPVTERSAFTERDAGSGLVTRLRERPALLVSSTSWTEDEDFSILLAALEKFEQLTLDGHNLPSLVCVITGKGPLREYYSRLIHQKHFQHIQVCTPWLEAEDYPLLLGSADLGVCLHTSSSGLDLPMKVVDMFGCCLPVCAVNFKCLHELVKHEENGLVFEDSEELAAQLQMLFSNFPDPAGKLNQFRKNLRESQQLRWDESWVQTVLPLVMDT

Compound in this experiment: CN1CCC(CNc2ccc3ncc(-c4cccc(OC(F)(F)F)c4)n3n2)CC1
Description: log2 fold change, soluble protein after heating vs DMSO (PISA); higher = thermal stabilisation; K562 lysate, 10 uM; active = over 0.2 and 3.5 SD of the protein, either way, in both replicates (recomputed). The method in brief:
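To prepare the extract, K562 pellets were dounce-homogenised in PBS pH 7.4 with 1 mM MgCl2, giving crude material at 1 mg/mL protein. This was treated with 10 μM compound for 30 min, then heated in aliquots for 3 min over 48°C-58°C before pooling and addition of NP-40 to 0.5% at 4°C. Centrifugation at 21,000xg for 90 min left soluble protein in the supernatant, which TMTpro 16plex LC-MS/MS quantified with equalised channel sums. Results are log-two fold changes in thermal stability compared with solvent controls, from duplicates.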
For the target ANP32B (UniProt Q92688), the log2 fold change was inactive: 0.046. As to AP1G2 (UniProt O75843), the log2 fold change was inactive: 0.032. In the case of ANGEL2 (UniProt Q5VTE6), the log2 fold change is inactive: 0.016.

With ANKRD13A (UniProt Q8IZ07), the log2 fold change was inactive: -0.003.

For the target ALDH1L2 (UniProt Q3SY69), the log2 fold change was inactive: -0.014. Regarding ALAD (UniProt P13716), the log2 fold change is inactive: 0.053.

With AP3B2 isoform 4 (UniProt Q13367), the log2 fold change is inactive: -0.006.

In the case of ANAPC2 (UniProt Q9UJX6), the log2 fold change was inactive: 0.058. Take ALDH1A2 (UniProt O94788): the log2 fold change is inactive: 0.095. In the case of ANXA3 (UniProt P12429), the log2 fold change was inactive: -0.011. Regarding ANKRD27 (UniProt Q96NW4), the log2 fold change is inactive: -0.073. For ANAPC10 (UniProt Q9UM13), the log2 fold change is inactive: 0.034. Take ALG1 (UniProt Q9BT22): the log2 fold change is inactive: -0.054.

Source of the values: the supplement of paper PMC10849652.
